Data as given in PubChem BioAssay AID1224831 (NIAID, 2016).
In all, the deposit lists about 3,500 reagents; below is an unselected part. 731 of all reagents (21%) were called active. 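Active means either lowered or raised reporter signal; the gene-median score did not drive the per-siRNA calls.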 Entries without a mark were called inactive. The numbers tell different reagents against one gene apart.

Screen: 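Genes that support or restrain LPS-induced TNF-alpha reporter activity in macrophage-like cells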 (follow-up of hits)
Cell system: human THP-1 B5 monocytic leukaemia cells carrying a TNF promoter luciferase reporter, made macrophage-like with PMA
Knock-down reagent: single siRNA against human genes, 50 nM
Time to read-out: about 68 h of knock-down, then 4 h LPS
Treatment: LPS (Salmonella minnesota, TLR-grade) at 10 ng/ml for 4 h; PMA 5 ng/ml present during knock-down
Measured: 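Firefly to renilla luciferase ratio of a TNF promoter reporter after 4 h LPS, scaled to plate median, turned into robust z-score, averaged over replicates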
Scale: TNF reporter z-score: higher = stronger LPS-induced TNF reporter signal; z-score, median over gene's siRNAs: higher = stronger TNF reporter signal across the gene's siRNAs
Hit rule: 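Active when the replicate mean z-score is about -1 or lower, or about 1.5 or higher; lowered and raised TNF reporter signal both count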
Calls: active = changed TNF reporter (either direction); inactive = little change

Gene	reagent	TNF reporter z-score, replicate mean	z-score, median over gene's siRNAs
DHX16	1	0.64	0.34
DHX16	2	0.4	0.34
DHX16	3	0.28	0.34
DHX16	4	0.21	0.34
DHX16	5	-0.19	0.34
DHX16	6	3.55 (active)	0.34
CYB5A	1	-0.67	0.72
CYB5A	2	1.74 (active)	0.72
CYB5A	3	1.07	0.72
CYB5A	4	0.37	0.72
CYB5A	5	0.21	0.72
CYB5A	6	2.54 (active)	0.72
MPV17	1	-0.17	-0.495
MPV17	2	-0.82	-0.495
MPV17	3	-1.78 (active)	-0.495
MPV17	4	4.61 (active)	-0.495
MPV17	5	-1.06 (active)	-0.495
MPV17	6	0.84	-0.495
FILIP1L	1	0.33	0.39
FILIP1L	2	-0.25	0.39
FILIP1L	3	0.45	0.39
FILIP1L	4	0.63	0.39
FILIP1L	5	-0.07	0.39
FILIP1L	6	0.68	0.39
DNAJA4	1	0.23	0.33
DNAJA4	2	0.43	0.33
DNAJA4	3	1.37	0.33
DNAJA4	4	0.55	0.33
DNAJA4	5	-0.01	0.33
DNAJA4	6	-0.81	0.33

The list goes on (7 carried over from the part before).
Gene	reagent	TNF reporter z-score, replicate mean	z-score, median over gene's siRNAs
FILIP1L	6	0.68	0.39
DNAJA4	1	0.23	0.33
DNAJA4	2	0.43	0.33
DNAJA4	3	1.37	0.33
DNAJA4	4	0.55	0.33
DNAJA4	5	-0.01	0.33
DNAJA4	6	-0.81	0.33
KLHL41	1	0.88	0.485
KLHL41	2	0.17	0.485
KLHL41	3	0.8	0.485
KLHL41	4	-0.27	0.485
KLHL41	5	0.9	0.485
KLHL41	6	-0.09	0.485
KDM7A	1	0.69	0.26
KDM7A	2	0.73	0.26
KDM7A	3	0.91	0.26
KDM7A	4	-0.17	0.26
KDM7A	5	-0.9	0.26
KDM7A	6	-0.39	0.26
GMDS	1	0.55	0.38
GMDS	2	0.57	0.38
GMDS	3	0.13	0.38
GMDS	4	-0.25	0.38
GMDS	5	0.21	0.38
GMDS	6	0.82	0.38
COPB1	1	-0.81	-0.56
COPB1	2	-1.06 (active)	-0.56
COPB1	3	-0.31	-0.56
COPB1	4	0.1	-0.56
COPB1	5	-0.21	-0.56
COPB1	6	-1.88 (active)	-0.56
BTNL8	1	-1.45 (active)	-0.465
BTNL8	2	-0.77	-0.465
BTNL8	3	-0.72	-0.465
BTNL8	4	-0.21	-0.465
BTNL8	5	0.04	-0.465
BTNL8	6	0.9	-0.465
CARD19	1	2.56 (active)	1
CARD19	2	0.73	1
CARD19	3	1.28	1
CARD19	4	5.58 (active)	1
CARD19	5	0.58	1
CARD19	6	-0.6	1
SERPINA4	1	0.04	0.17
SERPINA4	2	0.45	0.17
SERPINA4	3	0.3	0.17
SERPINA4	4	-0.32	0.17
SERPINA4	5	1.61 (active)	0.17
SERPINA4	6	-0.84	0.17
TAS1R2	1	-0.9	-0.345
TAS1R2	2	-0.77	-0.345
TAS1R2	3	-0.13	-0.345
TAS1R2	4	0.79	-0.345
TAS1R2	5	-0.56	-0.345
TAS1R2	6	0.1	-0.345
ZFP2	1	1.04	0.41
ZFP2	2	-0.1	0.41
ZFP2	3	1.1	0.41
ZFP2	4	0.92	0.41
ZFP2	5	-0.23	0.41
ZFP2	6	-0.59	0.41
